Laboratory results published in paper PMC6879534, “Structural basis for DNA unwinding at forked dsDNA by two coordinating Pif1 helicases” (Nature Communications, 2019).
Construct, isoform or probe ends are uncertain for at least one entry.

Target: BaPif1 wild type (UniProt A0A373G551)
Assay: crystal structure (3.3 A)
Settings: ADP-AlF4-, protein:DNA 4:1; crystals: 80 mM NaCl, 40 mM sodium cacodylate pH 6.0, 35% MPD, 12 mM spermine, 16 C; recombinant protein

## TTTTTTTTTTCGCGCGCGCGTTTTTTTTTT / TTTTTTTTTTCGCGCGCGCGTTTTTTTTTT [dT10-fdsDNA (10dT-fdsDNA)]
  binding result: binds
